The exact form of at least one protein or probe is not confirmed. For some assays here: A weaker result is weaker than the reference pair of the same experiment. For some assays here: At least one verdict was read from the data and is not stated in words by the source.
Experiments:
[1] = target: DnaA I190A (Bacillus subtilis) (UniProt P05648); test: EMSA; conditions: 1 mM ATP, less high molecular weight species, no Cy5 strand release; EMSA: 25 nM scaffold, 0-250 nM DnaA, 10 mM HEPES-KOH pH 8, 100 mM potassium glutamate, 1 mM magnesium acetate, 30% glycerol, 10% DMSO, 1 mM ADP or ATP, 20°C 2 h; recombinant protein; protein details: N-terminal His-tag removed with Factor Xa; label: 5' Cy3 on strand 1, 5' Cy5 on strand 2
[2] = target: DnaA wild-type (Bacillus subtilis) (UniProt P05648); test: EMSA; conditions: 1 mM ADP; EMSA: 25 nM scaffold, 0-250 nM DnaA, 10 mM HEPES-KOH pH 8, 100 mM potassium glutamate, 1 mM magnesium acetate, 30% glycerol, 10% DMSO, 1 mM ADP or ATP, 20°C 2 h; recombinant protein; protein details: N-terminal His-tag removed with Factor Xa; label: 5' Cy5 on strand 2

“ACTTATCCACAAATCCACAGGCCC / TACTATTACTTCTACTA / TAGTAGAAGTAATAGTAGGGCCTGTGGATTTGTGGATAAGT”: binds more weakly [1].

“CGTTCGGCTGCGGCGAGCGGTATCAGCTCACTCAAAGGCGGTAATACGGTTATCCACAAATCCACAGGCCC / TACTATTACTTCTACTA / TAGTAGAAGTAATAGTAGGGCCTGTGGATTTGTGGATAACCGTATTACCGCCTTTGAGTGAGCTGATACCGCTCGCCGCAGCCGAACG [Wild-type long scaffold, oHM616/oHM590/oHM615]”: binds [2].

Reference: PMC6669920
